# Measured values as given in paper PMC7985502.
# Chains of the proteins cited; added tags and fusions are not shown. Residues count along the entry.
# UniProt Q13200: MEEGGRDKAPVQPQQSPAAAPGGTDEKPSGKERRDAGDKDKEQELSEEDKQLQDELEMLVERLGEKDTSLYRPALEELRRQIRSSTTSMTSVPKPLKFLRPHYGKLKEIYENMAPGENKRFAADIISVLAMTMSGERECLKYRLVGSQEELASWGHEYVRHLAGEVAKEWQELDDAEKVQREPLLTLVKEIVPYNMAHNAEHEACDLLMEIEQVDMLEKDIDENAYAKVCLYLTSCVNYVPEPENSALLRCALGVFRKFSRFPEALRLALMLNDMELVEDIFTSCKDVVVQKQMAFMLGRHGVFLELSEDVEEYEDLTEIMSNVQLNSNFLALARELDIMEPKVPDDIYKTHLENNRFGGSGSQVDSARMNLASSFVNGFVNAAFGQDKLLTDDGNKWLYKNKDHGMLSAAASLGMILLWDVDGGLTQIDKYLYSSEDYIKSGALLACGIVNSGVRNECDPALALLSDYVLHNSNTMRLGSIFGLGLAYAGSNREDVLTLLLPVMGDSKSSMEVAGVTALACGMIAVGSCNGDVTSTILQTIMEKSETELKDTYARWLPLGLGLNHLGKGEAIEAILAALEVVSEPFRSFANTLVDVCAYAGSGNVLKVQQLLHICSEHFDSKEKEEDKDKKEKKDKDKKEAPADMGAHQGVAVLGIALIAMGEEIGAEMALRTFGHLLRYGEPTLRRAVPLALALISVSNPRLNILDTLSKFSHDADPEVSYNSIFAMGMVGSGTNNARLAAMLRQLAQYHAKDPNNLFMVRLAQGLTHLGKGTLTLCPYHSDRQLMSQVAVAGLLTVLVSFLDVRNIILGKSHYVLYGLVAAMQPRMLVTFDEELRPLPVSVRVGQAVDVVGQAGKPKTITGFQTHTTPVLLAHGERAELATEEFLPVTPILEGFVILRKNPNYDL
# UniProt P11021, residues 19-654: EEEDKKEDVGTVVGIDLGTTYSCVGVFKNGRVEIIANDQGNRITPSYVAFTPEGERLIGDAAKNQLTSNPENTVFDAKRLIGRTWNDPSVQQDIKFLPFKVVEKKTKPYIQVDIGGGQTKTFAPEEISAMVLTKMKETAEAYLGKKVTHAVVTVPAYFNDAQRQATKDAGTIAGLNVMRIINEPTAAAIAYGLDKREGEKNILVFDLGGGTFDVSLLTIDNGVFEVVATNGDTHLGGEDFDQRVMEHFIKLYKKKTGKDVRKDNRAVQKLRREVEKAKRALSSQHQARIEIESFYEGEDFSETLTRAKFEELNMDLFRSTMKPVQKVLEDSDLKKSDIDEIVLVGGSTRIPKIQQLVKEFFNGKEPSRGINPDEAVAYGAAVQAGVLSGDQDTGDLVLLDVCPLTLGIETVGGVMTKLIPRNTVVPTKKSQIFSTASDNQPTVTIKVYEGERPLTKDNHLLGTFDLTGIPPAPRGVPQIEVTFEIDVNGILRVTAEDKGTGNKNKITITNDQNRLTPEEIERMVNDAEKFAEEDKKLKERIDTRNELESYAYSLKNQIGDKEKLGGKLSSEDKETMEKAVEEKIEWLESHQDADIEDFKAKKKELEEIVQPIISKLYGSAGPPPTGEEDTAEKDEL
# UniProt A6H8Y1: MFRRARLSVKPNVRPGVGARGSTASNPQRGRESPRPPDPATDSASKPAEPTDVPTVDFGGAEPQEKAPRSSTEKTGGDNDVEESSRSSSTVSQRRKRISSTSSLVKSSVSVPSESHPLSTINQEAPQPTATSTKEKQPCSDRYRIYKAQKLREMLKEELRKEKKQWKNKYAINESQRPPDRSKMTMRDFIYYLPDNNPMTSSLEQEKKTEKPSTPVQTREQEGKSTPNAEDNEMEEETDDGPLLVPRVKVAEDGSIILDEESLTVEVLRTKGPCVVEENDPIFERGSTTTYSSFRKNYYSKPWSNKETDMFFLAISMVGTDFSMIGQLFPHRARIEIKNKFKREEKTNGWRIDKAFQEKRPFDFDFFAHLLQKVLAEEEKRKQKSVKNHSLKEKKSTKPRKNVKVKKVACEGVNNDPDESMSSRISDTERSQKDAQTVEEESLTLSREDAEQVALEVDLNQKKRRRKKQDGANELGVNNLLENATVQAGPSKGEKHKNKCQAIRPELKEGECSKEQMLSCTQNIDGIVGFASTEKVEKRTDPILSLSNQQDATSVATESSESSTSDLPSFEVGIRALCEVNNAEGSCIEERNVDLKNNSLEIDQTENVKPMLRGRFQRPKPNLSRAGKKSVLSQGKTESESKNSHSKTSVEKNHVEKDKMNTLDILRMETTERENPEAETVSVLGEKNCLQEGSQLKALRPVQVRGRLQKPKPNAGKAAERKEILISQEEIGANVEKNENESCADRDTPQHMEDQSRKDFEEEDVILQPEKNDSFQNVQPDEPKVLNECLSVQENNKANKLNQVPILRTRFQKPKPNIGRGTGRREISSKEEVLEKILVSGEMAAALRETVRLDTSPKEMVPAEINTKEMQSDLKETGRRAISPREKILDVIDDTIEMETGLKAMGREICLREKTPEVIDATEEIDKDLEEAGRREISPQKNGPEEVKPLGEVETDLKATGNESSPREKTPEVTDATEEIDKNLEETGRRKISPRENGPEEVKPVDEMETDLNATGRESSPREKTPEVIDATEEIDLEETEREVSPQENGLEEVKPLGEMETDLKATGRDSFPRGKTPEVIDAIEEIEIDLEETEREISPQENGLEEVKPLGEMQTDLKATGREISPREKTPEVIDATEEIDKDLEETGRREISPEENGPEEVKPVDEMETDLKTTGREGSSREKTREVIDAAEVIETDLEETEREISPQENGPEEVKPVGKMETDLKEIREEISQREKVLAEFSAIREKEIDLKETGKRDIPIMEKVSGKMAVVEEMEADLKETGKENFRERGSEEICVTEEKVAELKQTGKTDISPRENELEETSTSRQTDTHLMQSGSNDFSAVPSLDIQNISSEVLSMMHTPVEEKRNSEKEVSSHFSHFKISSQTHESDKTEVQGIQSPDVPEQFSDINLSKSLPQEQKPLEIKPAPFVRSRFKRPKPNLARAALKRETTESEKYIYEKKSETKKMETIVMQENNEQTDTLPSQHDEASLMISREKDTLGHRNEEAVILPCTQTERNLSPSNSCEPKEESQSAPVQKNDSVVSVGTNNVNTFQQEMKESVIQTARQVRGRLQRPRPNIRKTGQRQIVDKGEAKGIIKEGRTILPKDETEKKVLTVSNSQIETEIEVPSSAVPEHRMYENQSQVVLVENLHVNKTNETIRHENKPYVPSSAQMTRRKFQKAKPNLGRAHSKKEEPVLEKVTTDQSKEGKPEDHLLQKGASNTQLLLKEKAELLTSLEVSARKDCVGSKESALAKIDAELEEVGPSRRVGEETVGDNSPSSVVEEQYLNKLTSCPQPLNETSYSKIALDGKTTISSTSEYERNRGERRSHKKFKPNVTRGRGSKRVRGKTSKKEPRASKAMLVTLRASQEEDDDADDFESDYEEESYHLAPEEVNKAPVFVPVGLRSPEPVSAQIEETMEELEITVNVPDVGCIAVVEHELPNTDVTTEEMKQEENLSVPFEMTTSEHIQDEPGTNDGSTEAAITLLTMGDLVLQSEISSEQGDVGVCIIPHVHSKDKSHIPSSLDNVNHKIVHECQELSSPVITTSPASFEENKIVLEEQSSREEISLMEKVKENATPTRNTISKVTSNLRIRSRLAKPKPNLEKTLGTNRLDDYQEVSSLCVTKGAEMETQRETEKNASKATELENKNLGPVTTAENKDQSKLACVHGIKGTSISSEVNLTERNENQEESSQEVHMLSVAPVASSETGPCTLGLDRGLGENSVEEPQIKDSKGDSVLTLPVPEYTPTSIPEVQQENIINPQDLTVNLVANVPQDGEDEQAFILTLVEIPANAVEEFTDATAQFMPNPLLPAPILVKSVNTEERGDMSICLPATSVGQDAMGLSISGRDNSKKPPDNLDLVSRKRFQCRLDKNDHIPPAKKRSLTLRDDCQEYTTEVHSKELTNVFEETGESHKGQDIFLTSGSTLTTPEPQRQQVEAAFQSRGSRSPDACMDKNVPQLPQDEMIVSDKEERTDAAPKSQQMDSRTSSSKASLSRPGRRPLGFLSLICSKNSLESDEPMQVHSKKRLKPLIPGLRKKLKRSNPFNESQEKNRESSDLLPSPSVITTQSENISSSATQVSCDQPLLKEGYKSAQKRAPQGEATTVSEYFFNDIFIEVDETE
# UniProt Q15436: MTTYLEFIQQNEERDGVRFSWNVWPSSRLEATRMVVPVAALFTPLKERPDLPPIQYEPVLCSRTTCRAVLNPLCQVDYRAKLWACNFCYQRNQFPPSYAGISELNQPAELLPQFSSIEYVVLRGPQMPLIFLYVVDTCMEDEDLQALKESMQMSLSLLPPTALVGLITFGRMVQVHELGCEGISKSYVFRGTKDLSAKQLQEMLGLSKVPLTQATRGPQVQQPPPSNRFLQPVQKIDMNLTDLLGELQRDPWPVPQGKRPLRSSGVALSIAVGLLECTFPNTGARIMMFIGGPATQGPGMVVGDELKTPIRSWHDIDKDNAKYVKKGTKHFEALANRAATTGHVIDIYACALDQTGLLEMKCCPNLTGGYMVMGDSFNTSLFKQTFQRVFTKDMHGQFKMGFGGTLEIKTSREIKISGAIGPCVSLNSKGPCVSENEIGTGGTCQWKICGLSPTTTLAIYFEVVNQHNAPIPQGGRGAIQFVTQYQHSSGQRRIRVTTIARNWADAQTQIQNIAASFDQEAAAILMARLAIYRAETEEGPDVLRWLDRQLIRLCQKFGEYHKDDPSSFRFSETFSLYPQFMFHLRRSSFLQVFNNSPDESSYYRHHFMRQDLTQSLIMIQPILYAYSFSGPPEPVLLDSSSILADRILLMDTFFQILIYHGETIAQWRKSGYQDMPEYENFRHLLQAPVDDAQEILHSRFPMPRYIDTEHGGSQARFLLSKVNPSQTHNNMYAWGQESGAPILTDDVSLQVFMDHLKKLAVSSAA
# UniProt Q9NTJ3: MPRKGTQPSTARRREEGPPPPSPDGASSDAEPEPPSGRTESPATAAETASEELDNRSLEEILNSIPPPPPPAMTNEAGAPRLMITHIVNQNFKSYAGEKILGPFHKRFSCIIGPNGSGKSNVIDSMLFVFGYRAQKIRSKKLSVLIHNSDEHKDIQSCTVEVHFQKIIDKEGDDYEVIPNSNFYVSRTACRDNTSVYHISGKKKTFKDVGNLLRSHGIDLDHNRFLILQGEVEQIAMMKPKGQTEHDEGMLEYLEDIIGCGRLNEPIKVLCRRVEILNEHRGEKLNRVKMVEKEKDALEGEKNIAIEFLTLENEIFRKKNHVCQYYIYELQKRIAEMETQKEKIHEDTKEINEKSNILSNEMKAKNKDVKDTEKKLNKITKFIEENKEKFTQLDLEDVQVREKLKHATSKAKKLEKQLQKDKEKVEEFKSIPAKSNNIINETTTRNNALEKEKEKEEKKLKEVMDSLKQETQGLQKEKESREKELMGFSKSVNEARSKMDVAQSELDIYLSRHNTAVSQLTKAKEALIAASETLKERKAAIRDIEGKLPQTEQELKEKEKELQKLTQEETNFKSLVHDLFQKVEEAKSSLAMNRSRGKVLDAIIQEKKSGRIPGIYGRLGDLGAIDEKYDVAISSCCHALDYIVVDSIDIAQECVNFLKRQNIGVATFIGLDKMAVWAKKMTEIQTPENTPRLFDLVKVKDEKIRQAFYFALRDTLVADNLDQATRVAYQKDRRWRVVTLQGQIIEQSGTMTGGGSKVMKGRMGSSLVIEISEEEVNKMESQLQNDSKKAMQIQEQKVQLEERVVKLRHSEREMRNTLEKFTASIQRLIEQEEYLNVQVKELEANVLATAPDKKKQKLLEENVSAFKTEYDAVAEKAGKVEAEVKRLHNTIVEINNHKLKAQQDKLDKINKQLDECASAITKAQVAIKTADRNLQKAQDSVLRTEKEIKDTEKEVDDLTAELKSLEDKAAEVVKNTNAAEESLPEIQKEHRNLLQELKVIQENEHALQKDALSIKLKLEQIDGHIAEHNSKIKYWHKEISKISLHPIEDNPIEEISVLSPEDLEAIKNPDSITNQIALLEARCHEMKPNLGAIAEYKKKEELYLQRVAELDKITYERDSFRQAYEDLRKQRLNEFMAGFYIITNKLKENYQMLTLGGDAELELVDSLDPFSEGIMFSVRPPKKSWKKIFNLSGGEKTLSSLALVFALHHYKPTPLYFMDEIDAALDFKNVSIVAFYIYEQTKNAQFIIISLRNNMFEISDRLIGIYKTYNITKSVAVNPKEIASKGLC
# No constants are given. Whether binding was seen depends on the method and setting. Binding seen in cells or lysates may run through a third protein. Here binding means that the protein was enriched with, or labelled near, the bait; the list need not be complete. For some assays here: Tags and fused reporters may be left off the sequences shown.
# Target: EGFP-tagged wild-type SEC23B (human) (UniProt Q15437)
# Test: affinity purification with mass spectrometry; anti-GFP (Abcam ab290) immunoprecipitation from lysates of stable Nthy-ori 3-1 cells, 10 mg total protein as 2 mg/ml lysates; cells untreated or treated with MG132 (10 uM, 24 h); normal rabbit IgG and Nthy-EGFP cells as negative controls; SDS-PAGE, then mass spectrometry
row,binding,Substance
1,binds,26S proteasome non-ATPase regulatory subunit 2 (PSMD2) (from UniProt Q13200 1-908)
2,binds,"78 kDa glucose-regulated protein (GRP78, HSPA5/BiP) (from UniProt P11021 19-654)"
3,binds,"B double prime 1 (BDP1, a subunit of RNA polymerase III transcription initiation factor IIIB) (from UniProt A6H8Y1 1-2624)"
4,binds,SEC23A (from UniProt Q15436 1-765)
5,binds,SMC2 (from UniProt O95347 1-1197)
6,binds,SMC3 (from UniProt Q9UQE7 1-1217)
7,binds,SMC4 (from UniProt Q9NTJ3 1-1288)

# Target: EGFP-tagged p.Val594Gly mutant SEC23B (human) (UniProt Q15437)
# Test: as above
row,binding,Substance
1,binds,SEC23A (from UniProt Q15436 1-765)
